Patent publication US20200341000A1, “METHOD OF SCREENING COMPOUNDS FOR TREATING CNS DISORDERS” (SAGE THERAPEUTICS, INC., priority 2017, published 2020)

Tested on: plasma membrane GABAARs containing the α4 and β3 subunits
Experiment: Biotinylation, surface/total GABAAR subunits in hippocampal slices of WT mice
Type: cell-based
Settings: 100 nM
Experimental: Hippocampi were dissected out of acute slices from 8 to 12 week old C57/B16 mice and lysed with phosphate buffer including: 20 mM Tris-HCl, 150 mM NaCl, 5 mM EDTA, 10 mM NaF, 2 mM Na3VO4, 10 mM pyrophosphate, 0.1% SDS and 1% Triton after drug treatment. The β3 subunit was isolated using immunoprecipitation with β3 antibodies, after correction for protein content and the specific activity of labeling. Results were attained by SDS/PAGE followed by autoradiography (Abramian et al., 2010). For biotinylation experiments hippocampi were dissected out of acute slices from 8 to 12 week old C57/B16 mice and incubated in artificial cerebrospinal fluid (ACSF) described above at 30° C. for 1 h for recovery before experimentation. Slices were then placed on ice and incubated for 30 min with 1 mg/mL NHS-SS-biotin (Pierce). Excess biotin was removed by a 50 mM glycine quenching buffer, followed by washing of slices three times in ice-cold ACSF. The tissue was snap frozen on dry ice for 5 min, thawed at 4° C. and lysed. The lysates were solubilized with 2% Triton at 4° C. on a rotating wheel for 1 h. The insoluble material was removed by centrifugation, and 350-500 μg of protein lysate were incubated with NeutrAvidin beads (Pierce) for 18-24 h at 4° C. […] Blots were then quantified using the CCD-based ChemiDoc XRS ? system. […]

With `CN1C(=O)CN=C(c2ccccc2)c2cc(Cl)ccc21` [diazepam] the “cell surface stability of the β3 subunit” value was “did not affect”.
